Reference: patent US20220389394A1
These are yes or no findings as the source states them, for the method shown. Where a sequence is shown, tags or fusion partners need not be part of it.

Chains of the proteins cited; added tags and fusions are not shown. Lines headed by an entry give the natural chain unless they say otherwise; changes in a name come on top. A line that says so, or that is headed by a name, gives the form on record, which may keep a tag or linker. Residues count along the entry.
biotinylated recombinant human FcγRIIIa (Val 176 variant) protein (Sino Biological) (P08637, form named): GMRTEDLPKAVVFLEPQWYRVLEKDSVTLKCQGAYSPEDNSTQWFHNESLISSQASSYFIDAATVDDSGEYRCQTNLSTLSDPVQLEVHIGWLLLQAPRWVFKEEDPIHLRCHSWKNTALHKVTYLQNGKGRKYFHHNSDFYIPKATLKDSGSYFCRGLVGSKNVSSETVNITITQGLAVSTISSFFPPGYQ
UniProt P12314, residues 16-288: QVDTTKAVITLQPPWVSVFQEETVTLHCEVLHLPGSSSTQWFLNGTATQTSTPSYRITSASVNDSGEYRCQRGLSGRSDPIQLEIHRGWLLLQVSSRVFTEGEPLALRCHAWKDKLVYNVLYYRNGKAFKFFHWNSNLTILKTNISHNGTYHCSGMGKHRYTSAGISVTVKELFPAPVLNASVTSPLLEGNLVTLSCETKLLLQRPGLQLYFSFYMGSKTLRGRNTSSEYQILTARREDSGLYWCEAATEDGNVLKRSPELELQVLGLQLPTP

Experiments:
[1] = biological target: biotinylated recombinant human FcγRIIIa (Val 176 variant) protein (Sino Biological) (human) (UniProt P08637); assay: AlphaScreen competition with human IgG beads; text: none could fully compete with human IgG
[2] = biological target: biotinylated recombinant human FcγRI protein (Sino Biological) (human) (UniProt P12314); assay: AlphaScreen competition with human IgG beads; text: none could fully compete with human IgG at the highest concentrations tested

B1: human FLT3-ligand (Δ5 amino acid) human IgG4 (S228P/F234A/L235A/M252Y/S254T/T256E) fusion protein (SEQ ID NO:14) (Fc fusion)
chain: TQDCSFQHSPISSDFAVKIRELSDYLLQDYPVTVASNLQDEELCGGLWRLVLAQRWMERLKTVAGSKMQGLLERVNTEIHFVTKCAFQPPPSCLRFVQTNISRLLQETSEQLVALKPWITRQNFSRCLELQCQPDSSTLPPPWSPRPLEATAESKYGPPCPPCPAPEAAGGPSVFLFPPKPKDTLYITREPEVTCVVVDVSQEDPEVQFNWYVDGVEVHNAKTKPREEQFNSTYRVVSVLTVLHQDWLNGKEYKCKVSNKGLPSSIEKTISKAKGQPREPQVYTLPPSQEEMTKNQVSLTCLVKGFYPSDIAVEWESNGQPENNYKTTPPVLDSDGSFFLYSRLTVDKSRWQEGNVFSCSVMHEALHNHYTQKSLSLSLGK
[1]
  binding: no binding (tested: 1176 nM (highest of the titration))
[2]
  binding: no binding (tested: 294 nM (highest of the titration))
